Here are results for 23 sequences from paper PMC7819943, “Rice protein-binding microarrays: a tool to detect cis-acting elements near promoter regions in rice”.

Chains of the proteins cited; added tags and fusions are not shown.
UniProt Q0JBA9, entry or part of it: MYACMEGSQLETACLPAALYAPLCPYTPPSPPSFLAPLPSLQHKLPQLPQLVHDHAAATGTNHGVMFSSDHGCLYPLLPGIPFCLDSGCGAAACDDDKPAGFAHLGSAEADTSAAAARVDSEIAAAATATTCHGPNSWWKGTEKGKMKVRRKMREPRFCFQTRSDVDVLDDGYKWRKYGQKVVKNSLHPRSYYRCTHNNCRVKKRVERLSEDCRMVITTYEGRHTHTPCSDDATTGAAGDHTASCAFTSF

This is one part of the list.

The target in this assay is OsWRKY34 (Oryza sativa, UniProt Q0JBA9 1-250). Briefly: protein-binding microarray (RPBM); PBS, 2% BSA, 51.3 ng/ul salmon testes DNA, 50 uM zinc acetate, 200 nM TF, 25 C, 1 h; high values mean tight binding. The settings on record: protein: recombinant; tags: N-terminal polyhistidine and DsRed monomer fusion (pET32a); label: CyDye5-dUTP incorporated in the synthesized complementary strand; 3' TTTTT single-stranded linker to array surface; dsDNA, one strand shown. The method in brief:
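Per-feature fluorescence intensity (arbitrary units), read on an Axon 4000B scanner, is the binding signal. Transcription factors carrying an N-terminal polyhistidine tag and DsRed fusion were expressed in E. coli BL21-CodonPlus and purified on Ni–NTA. A custom Agilent array, made double-stranded by primer extension with Cy5-dUTP and blocked with 2% BSA, was incubated with 200 nM protein in PBS, 2% BSA, salmon testes DNA and 50 µM zinc acetate at 25 °C for 1 h and then washed.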
For the sequence “CTCGTCATATCCCATTGCCAACCTAGCACAAAACGACATTCGGAGTCACCTAGTGCAG”, the binding signal was 9240 fluorescence intensity (a.u.).
With “TGCTTCATATCCCTGGTTCCCCATACCCTAGCCAATCCCACGGAGTCACCTAGTGCAG”, the binding signal is 8200 fluorescence intensity (a.u.).
“GCTATATACTATTTCTCCAATTTTTCCCACTGGGTTTTTACGGAGTCACCTAGTGCAG”: the binding signal is 10500 fluorescence intensity (a.u.).
The same measure for “CTCCCACCACCGCCGCCGCCGAACCCTAGTTCCTCTTTGCCGGAGTCACCTAGTGCAG”: 9210 fluorescence intensity (a.u.); for “GATCACCTCTGTCGAACTCAAACCCTCAGCTGTGACGAGTCGGAGTCACCTAGTGCAG”: 10000 fluorescence intensity (a.u.); for “TACGTTTGGAACTGTGTATTACTTGTCGTTTTGTGTACCCCGGAGTCACCTAGTGCAG”: 11300 fluorescence intensity (a.u.).
The same measure for “TAGTTTTTTCAGTTGCATTTTTTTAACTTAGCCATTGCATCGGAGTCACCTAGTGCAG”: 8150 fluorescence intensity (a.u.); for “CTCCAAGCGCCCGCGCGCGCCACCAGCTGTCGCTGCCTCTCGGAGTCACCTAGTGCAG”: 10300 fluorescence intensity (a.u.); for “ACGCCACTCGCTCGGATCCAGGGCCCCACCTGTCATTAGCCGGAGTCACCTAGTGCAG”: 8430 fluorescence intensity (a.u.).
As for “ATCGAGGTCCCCTGCCCGCACACTTCGCGTCAGCTGCTGCCGGAGTCACCTAGTGCAG”, the binding signal is 9000 fluorescence intensity (a.u.).
In the case of “TATTCAGGGGCAAACAATCCAGAGTTCCAGTCTCGGCCTTCGGAGTCACCTAGTGCAG” it was 8090 fluorescence intensity (a.u.); in that of “TCTGACCGTTGGATTGCCCTGATCAGGTGGCTGAGATTTCCGGAGTCACCTAGTGCAG”, 8240 fluorescence intensity (a.u.); in that of “GGGCCTAAGTTTCTCTCTGCTGGGCTATTCTCTGGTTGTACGGAGTCACCTAGTGCAG”, 8780 fluorescence intensity (a.u.).
In the case of “TCACATTCTCTTGTCTCTTGTACTCACCGCATCCTGCTTGCGGAGTCACCTAGTGCAG” it was 11200 fluorescence intensity (a.u.).
In the case of “ATTTTGCTTTGATTATTTTTACCCTTTACTAATTTTACATCGGAGTCACCTAGTGCAG” it was 8520 fluorescence intensity (a.u.); in that of “TGTGACTAATCAGTTGTTTGTATCTTTAAGGTTTGAGAAGCGGAGTCACCTAGTGCAG”, 9190 fluorescence intensity (a.u.); in that of “TCGTCGTTGTTTCATTTGTTCTTGCAGGTCGCTGAGCGGCCGGAGTCACCTAGTGCAG”, 9120 fluorescence intensity (a.u.).
“CCGTCTACCATGGTACCACCGCGCGCGTCACGTTGCAACGCGGAGTCACCTAGTGCAG”: the binding signal is 10100 fluorescence intensity (a.u.).
In the case of “GTCTCTTCTCTCAACCGCGACCGCATCTCGCCGCCCGCCGCGGAGTCACCTAGTGCAG” it was 15400 fluorescence intensity (a.u.); in that of “CTCCCAATGCGCCCAAACCACCGTACCAATCCCTCCTCCGCGGAGTCACCTAGTGCAG”, 9150 fluorescence intensity (a.u.).
In the case of “TTTTTTTTTTCTTTCTTTTTTGCGTTTGCATGTGATGGAACGGAGTCACCTAGTGCAG” it was 9530 fluorescence intensity (a.u.); in that of “ACGGCCTCTACATCTAACCGGATATATGCAACCTTTATAACGGAGTCACCTAGTGCAG”, 9760 fluorescence intensity (a.u.).
In the case of “CTACACCCCTGCTACTGCTGTTATTGTGGGCTACTTGTTACGGAGTCACCTAGTGCAG” it was 10800 fluorescence intensity (a.u.).
